Results are given in words; binding and its absence hold for the method and conditions named. In cells and extracts the contact can be indirect. Some entries that bind do so weakly or less than the wild type. For some of these results: Tags and fused reporters may be left off the sequences shown.

Chains of the proteins cited; added tags and fusions are not shown.
UniProt P49759: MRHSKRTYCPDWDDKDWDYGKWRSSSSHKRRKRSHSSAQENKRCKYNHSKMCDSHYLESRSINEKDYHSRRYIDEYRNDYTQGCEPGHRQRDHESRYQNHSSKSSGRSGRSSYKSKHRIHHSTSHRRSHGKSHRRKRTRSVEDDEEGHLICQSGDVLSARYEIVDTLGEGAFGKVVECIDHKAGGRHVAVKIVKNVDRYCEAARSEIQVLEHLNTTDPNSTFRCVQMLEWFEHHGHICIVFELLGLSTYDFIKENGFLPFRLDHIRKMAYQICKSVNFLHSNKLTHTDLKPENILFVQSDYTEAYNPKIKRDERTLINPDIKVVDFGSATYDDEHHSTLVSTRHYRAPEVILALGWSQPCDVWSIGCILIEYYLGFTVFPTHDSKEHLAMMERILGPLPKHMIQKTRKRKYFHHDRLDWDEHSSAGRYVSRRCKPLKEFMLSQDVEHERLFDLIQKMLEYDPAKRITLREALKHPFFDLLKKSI
UniProt P37231: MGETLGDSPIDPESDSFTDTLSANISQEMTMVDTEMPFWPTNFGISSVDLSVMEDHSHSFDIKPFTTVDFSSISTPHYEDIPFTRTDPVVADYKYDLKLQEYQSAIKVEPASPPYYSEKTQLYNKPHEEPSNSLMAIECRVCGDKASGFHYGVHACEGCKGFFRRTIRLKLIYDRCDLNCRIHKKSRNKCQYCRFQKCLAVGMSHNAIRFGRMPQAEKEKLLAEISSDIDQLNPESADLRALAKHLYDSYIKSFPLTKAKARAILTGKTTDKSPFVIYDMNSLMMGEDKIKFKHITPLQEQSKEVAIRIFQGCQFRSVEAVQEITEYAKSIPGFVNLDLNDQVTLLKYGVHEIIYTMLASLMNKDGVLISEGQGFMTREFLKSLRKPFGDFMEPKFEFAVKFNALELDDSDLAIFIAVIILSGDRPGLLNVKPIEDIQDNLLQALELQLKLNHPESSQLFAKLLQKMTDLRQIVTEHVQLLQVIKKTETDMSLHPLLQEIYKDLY

The source of these data is publication PMC8435799.

Assay [1] has as its target T1, HA-THRAP3 S243D (phosphorylation-mimic) (UniProt Q9Y2W1).
T1 sequence: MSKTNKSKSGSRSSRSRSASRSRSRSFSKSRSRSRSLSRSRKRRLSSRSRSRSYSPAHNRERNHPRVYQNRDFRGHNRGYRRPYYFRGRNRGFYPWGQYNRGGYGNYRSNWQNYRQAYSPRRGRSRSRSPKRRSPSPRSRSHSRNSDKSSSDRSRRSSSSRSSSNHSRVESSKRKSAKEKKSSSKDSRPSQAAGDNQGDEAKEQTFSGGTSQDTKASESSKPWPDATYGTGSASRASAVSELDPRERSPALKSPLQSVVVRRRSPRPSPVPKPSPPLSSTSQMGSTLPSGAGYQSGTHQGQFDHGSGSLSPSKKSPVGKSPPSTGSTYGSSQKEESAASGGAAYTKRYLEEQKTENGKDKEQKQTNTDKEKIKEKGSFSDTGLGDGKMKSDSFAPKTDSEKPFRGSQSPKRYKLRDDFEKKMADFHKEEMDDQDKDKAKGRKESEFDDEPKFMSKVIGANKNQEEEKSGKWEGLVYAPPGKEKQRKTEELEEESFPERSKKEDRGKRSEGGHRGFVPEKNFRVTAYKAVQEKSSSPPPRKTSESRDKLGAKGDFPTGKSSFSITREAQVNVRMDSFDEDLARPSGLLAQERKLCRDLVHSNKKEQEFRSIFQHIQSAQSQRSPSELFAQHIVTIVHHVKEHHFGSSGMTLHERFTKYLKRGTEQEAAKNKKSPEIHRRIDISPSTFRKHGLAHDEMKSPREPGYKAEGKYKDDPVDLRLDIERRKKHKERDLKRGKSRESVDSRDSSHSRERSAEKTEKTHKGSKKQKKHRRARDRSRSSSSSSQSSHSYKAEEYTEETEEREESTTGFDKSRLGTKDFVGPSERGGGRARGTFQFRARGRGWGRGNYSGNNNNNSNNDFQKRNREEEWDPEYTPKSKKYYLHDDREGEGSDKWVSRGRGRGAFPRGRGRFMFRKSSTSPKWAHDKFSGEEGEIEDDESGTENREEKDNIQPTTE
The assay is described as follows: co-IP; HA-THRAP3 S243D co-expressed with WT or S273A Flag-PPARγ in HEK293T; IP with anti-HA antibody; blot with anti-Flag.

The target of assay [2] is Flag-tagged CLK1 (UniProt P49759). Description: co-IP; Flag-tagged CLK1 transfected into HEK293T, pulled down with anti-Flag antibody after 48 h; THRAP3 detected by western blot. Background: Immunoblotting shows a protein as a band on a membrane.
Assay [3] concerns the target Flag-PPARγ (peroxisome proliferator-activated receptor gamma), WT (UniProt P37231). The assay is described as follows: co-IP; HA-tagged THRAP3 (WT, S243A or S243D) co-transfected with Flag-PPARγ into HEK293T; Flag-mediated co-IP; western blot.
Assay [4] concerns the target Flag-tagged CLK1 (UniProt P49759). Description: co-IP; Flag-tagged CLK1 and HA-tagged THRAP3 (WT, ΔN, ΔC or ΔNC) co-transfected into HEK293T; IP with anti-Flag antibody-conjugated agarose beads; blot with anti-HA.

Turning to “Flag-PPARγ (peroxisome proliferator-activated receptor gamma), WT (from UniProt P37231 1-505)”, in assay [1], the binding result was “binds”.

B1: thyroid hormone receptor-associated protein 3 (THRAP3) (protein, UniProt Q9Y2W1 1-955)
chain: MSKTNKSKSGSRSSRSRSASRSRSRSFSKSRSRSRSLSRSRKRRLSSRSRSRSYSPAHNRERNHPRVYQNRDFRGHNRGYRRPYYFRGRNRGFYPWGQYNRGGYGNYRSNWQNYRQAYSPRRGRSRSRSPKRRSPSPRSRSHSRNSDKSSSDRSRRSSSSRSSSNHSRVESSKRKSAKEKKSSSKDSRPSQAAGDNQGDEAKEQTFSGGTSQDTKASESSKPWPDATYGTGSASRASAVSELSPRERSPALKSPLQSVVVRRRSPRPSPVPKPSPPLSSTSQMGSTLPSGAGYQSGTHQGQFDHGSGSLSPSKKSPVGKSPPSTGSTYGSSQKEESAASGGAAYTKRYLEEQKTENGKDKEQKQTNTDKEKIKEKGSFSDTGLGDGKMKSDSFAPKTDSEKPFRGSQSPKRYKLRDDFEKKMADFHKEEMDDQDKDKAKGRKESEFDDEPKFMSKVIGANKNQEEEKSGKWEGLVYAPPGKEKQRKTEELEEESFPERSKKEDRGKRSEGGHRGFVPEKNFRVTAYKAVQEKSSSPPPRKTSESRDKLGAKGDFPTGKSSFSITREAQVNVRMDSFDEDLARPSGLLAQERKLCRDLVHSNKKEQEFRSIFQHIQSAQSQRSPSELFAQHIVTIVHHVKEHHFGSSGMTLHERFTKYLKRGTEQEAAKNKKSPEIHRRIDISPSTFRKHGLAHDEMKSPREPGYKAEGKYKDDPVDLRLDIERRKKHKERDLKRGKSRESVDSRDSSHSRERSAEKTEKTHKGSKKQKKHRRARDRSRSSSSSSQSSHSYKAEEYTEETEEREESTTGFDKSRLGTKDFVGPSERGGGRARGTFQFRARGRGWGRGNYSGNNNNNSNNDFQKRNREEEWDPEYTPKSKKYYLHDDREGEGSDKWVSRGRGRGAFPRGRGRFMFRKSSTSPKWAHDKFSGEEGEIEDDESGTENREEKDNIQPTTE
Regarding B1, in the assay with Flag-tagged CLK1 [2], the binding result is on record as “binds”.

B2: HA-tagged THRAP3 full length (WT) (protein, UniProt Q9Y2W1 1-955)
chain: MSKTNKSKSGSRSSRSRSASRSRSRSFSKSRSRSRSLSRSRKRRLSSRSRSRSYSPAHNRERNHPRVYQNRDFRGHNRGYRRPYYFRGRNRGFYPWGQYNRGGYGNYRSNWQNYRQAYSPRRGRSRSRSPKRRSPSPRSRSHSRNSDKSSSDRSRRSSSSRSSSNHSRVESSKRKSAKEKKSSSKDSRPSQAAGDNQGDEAKEQTFSGGTSQDTKASESSKPWPDATYGTGSASRASAVSELSPRERSPALKSPLQSVVVRRRSPRPSPVPKPSPPLSSTSQMGSTLPSGAGYQSGTHQGQFDHGSGSLSPSKKSPVGKSPPSTGSTYGSSQKEESAASGGAAYTKRYLEEQKTENGKDKEQKQTNTDKEKIKEKGSFSDTGLGDGKMKSDSFAPKTDSEKPFRGSQSPKRYKLRDDFEKKMADFHKEEMDDQDKDKAKGRKESEFDDEPKFMSKVIGANKNQEEEKSGKWEGLVYAPPGKEKQRKTEELEEESFPERSKKEDRGKRSEGGHRGFVPEKNFRVTAYKAVQEKSSSPPPRKTSESRDKLGAKGDFPTGKSSFSITREAQVNVRMDSFDEDLARPSGLLAQERKLCRDLVHSNKKEQEFRSIFQHIQSAQSQRSPSELFAQHIVTIVHHVKEHHFGSSGMTLHERFTKYLKRGTEQEAAKNKKSPEIHRRIDISPSTFRKHGLAHDEMKSPREPGYKAEGKYKDDPVDLRLDIERRKKHKERDLKRGKSRESVDSRDSSHSRERSAEKTEKTHKGSKKQKKHRRARDRSRSSSSSSQSSHSYKAEEYTEETEEREESTTGFDKSRLGTKDFVGPSERGGGRARGTFQFRARGRGWGRGNYSGNNNNNSNNDFQKRNREEEWDPEYTPKSKKYYLHDDREGEGSDKWVSRGRGRGAFPRGRGRFMFRKSSTSPKWAHDKFSGEEGEIEDDESGTENREEKDNIQPTTE
Take B2: the binding result (in assay [3]; with Flag-tagged CLK1 [4]) was “binds” each time.
